Experimental data taken from article PMC12092002.
These are yes or no findings as the source states them, for the method shown. Binding seen in cells or lysates may run through a third protein. Binding can be weak; no strength is given.

Biological target: MCA-3::VN173 (C. elegans)
Assay: split reporter; BiFC in vivo in C. elegans: split mVenus (VN173 and VC155); FLWR-1 fusion from its own promoter, partner fusion in body wall muscle cells; fluorescence imaged with x100 objective, 460 nm excitation, 500 ms exposure

B1: FLWR-1::VC155 (protein, UniProt Q93533 1-166)
chain: MGAAASGVSTQMQAEHDPNAAFPWWVRFLAKGVAILGGFLSLFFGVLGLITLSATCMVAILLQMTAGALVIALEAPFCCQFVDFIEKIARFSESRALWHKAAIYGAMGLIPIFLCIELNTILGSGTIFASGVIYGFMALGKKADRSNMMAAGDPAWSPQVNQSNIP
- binding: binds
